Paper PMC10163288
Some of the results follow.

B1: il2ra_site2_2erj_normal_mot_HHH_b2_05804_000000098_0001_44_58_H_._HHH_b2_07773_af2_0001_0000500032_0000001_0 (protein)
chain: SSSSSDRKEAWEKVAEILAKAAHIRDEEEVEELLERAERVAEENNDEFLRRYVEFARRAFSSSSS
B2: il2ra_site2_2erj_sap_18_mot_HHH_b1_03924_000000147_0001_1_20_H_._d5df4b299ca3074c1b4ca371b633e360_0001_0001_0000200015_0000001_0_0001 (protein)
chain: SSSSDEELRELFRLAVELSHLVSEGDEEEFERLLEEVKRIAKELNSEAVEKILESLERLIKSSSS
B3: il2ra_site2_2erj_sap_18_mot_HHH_b2_08311_000000098_0001_42_56_H_._HHH_b2_02486_0001_0000400050_0000001_0_0001 (protein)
chain: SSSSDDREIERFRELFEELRRLFKEGDREEFEEVLEELEERAKEEGDPRLEVLVRFAKSALSSSS
B4: il2ra_site1_2b5i_normal_mot_HHH_b1_02271_000000068_0001_1_16_H_._HHH_b2_01721_af2_0001_0000300031_0000001_0_af2pred_dldesign_0_af2pred (protein)
chain: SSSSSSSVDERIEELIEQAKKEKDRRKALELLEEAHKLASAEGREDLLDEIEKLAKEISSSSSSS
B5: il2ra_site1_1z92_sap_11_mot_HHH_b2_07953_000000091_0001_18_34_H_._77b064c75c6d617534c80658c3c44cb1_0001_0001_0000300014_0000001_0_0001 (protein)
chain: SSSSDDEEWMRLAREVLRLLENGNPEEAKEVLEELKRLAEELGNRIAREMAERLEEVIEGSSSSS
B6: il2ra_site2_3nfp_sap_19_mot_HHH_b2_07840_000000026_0001_18_34_H_._HHH_b2_02633_af2_0002_0000100002_0000001_0_0001 (protein)
chain: SSSSSEEEEEVRRLIEEAEQLIKEGNPEEAEKVLLRAALLAWELNDTELWMAIAELILRLSSSSS
B7: il2ra_site2_3nfp_normal_mot_HHH_b2_00895_af2_000000099_0001_38_52_H_._HHH_b2_02024_0001_0000700036_0000001_0 (protein)
chain: SSSSDEELALEYAALAAKLHNDPELLEELEEAIEEAERHNDPRLREEALRIASELALKIATSSSS
B8: il2ra_site2_3nfp_normal_mot_HHH_b1_06797_000000164_0001_24_40_H_._HHH_b2_08062_0001_0000500023_0000001_0 (protein)
chain: SSSSSKAEEYLEAVVLVIELALEAGDRESARSSLEAAEQLAELLGDEELLERLEELKELVNSSSS
B9: il2ra_site1_2b5i_sap_24_mot_2cbe48e66a1f39b3fed734b245ab0a04_0001_000000015_0001_17_31_H_._HHH_b2_02027_0001_0000100002_0000001_0_0001_af2pred_dldesign_0_af2pre … (protein)
chain: SSSSDEAFDKVDELYKKALELRRQGKKEEAKKTLEEALAIAKEAGLEKIVAELQYLLEKLSSSSS
B10: il2ra_site2_2erj_sap_23_mot_HHH_b1_00071_af2_000000225_0001_40_56_H_._HHH_b2_05421_af2_0002_0000600047_0000001_0_0001 (protein)
chain: SSSDEEEKVKELIEEAEKLLEEGNPEEALEVLRRAATLAFELNDFELFSAIAELLEAIARASSSS
B11: il2ra_site2_3nfp_sap_23_mot_ems_3hM_287_af2_000000177_0001_46_64_H_._HHH_b2_01015_af2_0001_0000600024_0000001_0_0001 (protein)
chain: SSSSDEQVLEVVLEYAEAVAALRGDEELLERIEELAEEYKEEGDPRYVREVARLLAERATSSSSS
B12: il2ra_site2_2erj_sap_21_mot_HHH_b2_02303_000000050_0001_43_56_H_._HHH_b1_05172_0001_0000200005_0000001_0_0001_af2pred_0001_af2pred (protein)
chain: SSSSSSNLVQEWVRLLLEEAEKIPDPEERKRWLELAELAARRWNDEEAEEEVERVQEELGSSSSS
B13: il2ra_site1_1z92_normal_mot_c9a8daa1dfea21d1414aecde54be4f54_0001_1_af2_000000024_0001_32_46_H_._HHH_b2_06162_af2_0001_0000100010_0000001_0_af2pred_0001_af2pred … (protein)
chain: SSSSDLEEEAEKIVEEVVKKLGLSEEDREALEYDAEQALRAGISERAVRRVLERIAKLLRSSSSS
B14: il2ra_site1_1z92_sap_13_mot_HHH_b2_05172_af2_000000284_0001_1_18_H_._HHH_b2_08220_0001_0000700079_0000001_0_0001 (protein)
chain: SSSSSDESHRLAIEAMKRLLKLLKNGNEEEAERLLEEVRRELEELGDPTAVEDLENYARYASSSS
B15: il2ra_site1_2b5i_sap_21_mot_2716ad6c8bc1fbd6d66602f60a7d4a27_0001_af2_000000180_0001_34_48_H_._08fb8540337ca522751f7d88495ca23a_0001_1_0001_0000400024_0000001_0 … (protein)
chain: SSSSEEEEAAFLRRVTSAAYRLRGLGKEEAVKKVTELATKYLETKDPRYLEEIERLVEEALSSSS
B16: il2ra_site2_3nfp_normal_mot_HHH_b1_00660_af2_000000090_0001_40_57_H_._HHH_b2_00792_af2_0001_0000100007_0000001_0 (protein)
chain: SSSSDEEIEERVEELLERYERVPDPEERRKILQEAFRLAYEANDFELFALVVELREELERTSSSS
B17: il2ra_site2_3nfp_sap_15_mot_9b1ece5d1ebc94355a99c96473898622_0001_1_af2_000000184_0001_31_45_H_._e4cf1a0cdac3444faaf76a8efd5e30e5_0001_0001_0000800038_0000001_0 … (protein)
chain: SSSSSSRRMLEAAIRSLEILKERGDEERAKISVEYLRAAAALHGDEEALEFAERLLEELRSSSSS
B18: il2ra_site2_2erj_normal_mot_118502477c40609e6006f550458cdfaf_0001_af2_000000174_0001_16_29_H_._HHH_b1_02677_af2_0001_0000300009_0000001_0 (protein)
chain: SSSSDESVKAAEELAREAFERGDREELLLLLLFAELTAEASNDPELEELVEEIEQLLERLRSSSS

Target: il2ra, P01589
Assay: yeast display titration

Apparent Kd, inactive:
B1 no binding seen, B2 no binding seen, B3 no binding seen, B4 no binding seen, B5 no binding seen, B6 no binding seen, B7 no binding seen, B8 no binding seen, B9 no binding seen, B10 > 416 nM, B11 no binding seen, B12 no binding seen, B13 no binding seen, B14 no binding seen, B15 no binding seen, B16 no binding seen, B17 no binding seen, B18 no binding seen
